In all, about 340,000 compounds went through this assay and about 4,500 (1.3%) were called active. Inconclusive means that the source gave no clear call. Such entries were picked first, then a sample of the others. The call rests on the fitted dose curve; in most records, active means well fitted inhibition curve with a large enough effect; inconclusive means small, poorly fitted or top-dose-only effect, or another doubt; inactive means no such curve, though single readings can be large or run the other way. A potency beside an inconclusive call is a rough fit, not a confirmed value.
Each compound was assayed against DNA polymerase beta (Homo sapiens) (UniProt P06746) (assay: qHTS Assay for Inhibitors of DNA Polymerase Beta). Conditions: Pol beta primer extension/strand displacement, fluorescence kinetic; activity change, negative = inhibition: at 114 µM (top of the series).
How it was run: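 Values derive from four-parameter Hill fits of normalized kinetic data: reads at 0 and 10 min following addition of 50 nM substrate to 10 nM Pol beta preincubated 15 min with compound.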
On the % scale 0 is the no-effect control and ±100 the full control effect; potency means the concentration at half of the fitted maximal effect.

Potency, inconclusive:
Cc1cc(NCC2CCCO2)n2c(nc3ccccc32)c1C#N (centres undefined) 12.6 µM [inhibitor, single point], CCN(CC)CCN(C(=O)C1=COCCO1)c1nc2c(OC)ccc(OC)c2s1 50.1 µM [inhibitor, single point], COc1ccc(C)c(S(=O)(=O)Nc2ccc(OCC(=O)O)cc2)c1 89.1 µM [inhibitor, single point], Cc1ccc(NC(=O)CSc2ccc(-c3cccnc3)nn2)c(C)c1 3.98 µM [inhibitor, single point], CC(C)CC(OC(=O)CC1Sc2ccccc2NC1=O)C(=O)NC1CCCC1 (centres undefined) 22.4 µM [inhibitor, full curve, poor fit], CCOc1ccc(NC2c3ccccc3C(=O)N2Cc2ccco2)cc1 (centres undefined) 89.1 µM [inhibitor, single point], Cc1ccc(NC(=O)c2ccc(Cl)cc2[N+](=O)[O-])nc1 89.1 µM [inhibitor, single point], COc1ccc(CCNC(=O)Cn2ncc3c(C)n(Cc4ccccc4F)c(C)c3c2=O)cc1OC 28.2 µM [inhibitor, full curve], CCCCn1c(C)cc(/C=C(\C#N)C(=O)O)c1C 12.6 µM [inhibitor, single point], O=C(CN1C(=O)c2cccc3cccc1c23)NC1CCCCC1 0.794 µM [inhibitor, full curve, poor fit], Cc1cccc(NC(=O)Cn2c(=O)oc3cc(S(=O)(=O)NCc4ccccc4)ccc32)c1 31.6 µM [inhibitor, full curve], COc1ccc(NC(c2ccc(F)cc2)c2nnc(-c3ccccc3Cl)o2)cc1Cl (centres undefined) 63.1 µM [inhibitor, single point], O=C(c1ccc(Oc2ccc([N+](=O)[O-])cc2)cc1)N1CCCCCC1 89.1 µM [inhibitor, single point], COc1ccc(Br)cc1CNC(=O)C(C)n1nc(C)n2c(cc3occc32)c1=O (centres undefined) 39.8 µM [inhibitor, single point], Cn1c(=O)c2c(=O)cc(N)[nH]c2n(C)c1=O 22.4 µM [inhibitor, single point], CC(=O)c1cccc(Nc2nc(-c3ccccc3)cs2)c1 0.631 µM [inhibitor, full curve, poor fit], COc1cccc(OCC(Cn2cnc3ccccc32)OC(C)=O)c1 (centres undefined) 1.12 µM [inhibitor, full curve, poor fit], C/C(=N\N=C(/N)SC1CC(=O)N(c2ccc(Cl)cc2)C1=O)c1cccs1 (centres undefined) 3.55 µM [inhibitor, full curve], Cc1ccc(S(=O)(=O)Nc2cc(C(C(=O)OC(C)C)C(=O)C(F)(F)F)c(O)c3ccccc23)c(C)c1 (centres undefined) 39.8 µM [inhibitor, single point], OC(COc1ccc2ccccc2c1)Cn1ccnc1 (centres undefined) 79.4 µM [inhibitor, single point], Cc1ccc(NC(=O)Cn2c(=O)oc3cc(S(=O)(=O)N4CCC(C)CC4)ccc32)cc1Cl 14.1 µM [inhibitor, full curve], COCCOC(=O)c1sc(=S)n(CCOC)c1N 79.4 µM [inhibitor, single point], O=C(CSc1nnnn1-c1cccnc1)Nc1ccc(OCc2ccccc2)cc1 39.8 µM [inhibitor, partial curve], CC(C)(C)c1ccc(-c2nnc3sc(-c4ccccn4)nn23)cc1 5.01 µM [inhibitor, partial curve, poor fit], Cc1[nH]n(C(N)=S)c(=O)c1N=Nc1ccc(S(=O)(=O)N2CCCCCC2)cc1 22.4 µM [inhibitor, partial curve, poor fit], N=c1c(C(=O)NCc2ccc(F)cc2)cc2c(=O)n3ccccc3nc2n1Cc1ccco1 70.8 µM [inhibitor, partial curve, poor fit], CC1CN(C(=O)CN2C(=O)NC(C)(c3ccccc3)C2=O)CC(C)O1 (centres undefined) 79.4 µM [inhibitor, single point], CCc1nn(CCCC(=O)N2CCN(c3ccc(OC)cc3)CC2)c(=O)c2cc3occc3n12 39.8 µM [inhibitor, single point], CC(=O)c1ccc(NC(=O)c2nc(-c3ccccc3)n(-c3ccccc3Cl)n2)cc1 89.1 µM [inhibitor, single point], COc1cc2cc(C(c3nnnn3C3CCCC3)N3CCc4ccccc43)c(=O)[nH]c2cc1OC (centres undefined) 39.8 µM [inhibitor, single point], CCOc1cc(/C=N/Nc2nnc(C)n2N)ccc1OC(C)=O 28.2 µM [inhibitor, partial curve], O=C(Nc1nnc(S(=O)(=O)N2CCCCCC2)s1)c1cccc(Br)c1 31.6 µM [inhibitor, partial curve, poor fit], O=C(CC1Nc2ccccc2NC1=O)Nc1cc(Cl)cc(Cl)c1 (centres undefined) 79.4 µM [inhibitor, partial curve], N#CC(c1ccc(Cl)cc1)c1nc2ccccc2nc1C(F)(F)F (centres undefined) 2.51 µM [inhibitor, partial curve, poor fit], Cc1cc(C)n2ncc(C(=O)Nc3ccc(Cl)c(Cl)c3)c2n1 1.58 µM [inhibitor, full curve], N#Cc1ccc(NC(=O)Nc2ccc(Oc3ccc(NC(=O)Nc4ccc(C#N)cc4)cc3)cc2)cc1 56.2 µM [inhibitor, single point], Cc1nnc(SCC(=O)Nc2ccccc2NC(=O)CSc2nnc(C)s2)s1 89.1 µM [inhibitor, single point], CCN1C(=O)C(O)(CC(=O)c2ccccn2)c2ccccc21 (centres undefined) 89.1 µM [inhibitor, single point], Cc1ccc(C2=NOC(=O)/C2=C\C=C\c2ccccc2)cc1 39.8 µM [inhibitor, partial curve]

Potency, active:
O=C(/C=C/c1ccc(Br)o1)NCc1ccccc1 0.708 µM, Cc1cc2c(=O)c(C(=O)c3ccncc3)cn(CC(=O)Nc3cccc(C)c3C)c2cc1C 39.8 µM, COc1cccc(=O)c2c(C)n(-c3ccc(C(=O)O)cc3)c(C)c12 15.8 µM, COc1ccc(S(=O)(=O)NCc2cccs2)cc1 25.1 µM, O=C(CSc1nnc(COc2ccccc2Cl)o1)NC(=O)NCc1ccco1 14.1 µM, N=C1/C(=C/c2ccc(Br)o2)C(=O)N=C2SC(CC(=O)N3CCCC3)=NN12 8.91 µM, O=c1oc(-c2ccccc2)nc2sc3c(c12)CCC3 11.2 µM, COc1ccc(/C=N/NC(=O)c2cc3cc(OC)c(OC)cc3[nH]2)cc1 6.31 µM

Potency, inactive:
CCCNC(=O)CCNS(=O)(=O)c1ccc2c(c1)c(=O)n(C)c(=O)n2C, CCCC(=O)NC(=S)Nc1sc2c(c1C(N)=O)CCC2, Cc1ccc(C2c3[nH]c4ccccc4c3CCN2C(=O)Nc2ccc(C)c(C)c2)cc1 (centres undefined), COC(=O)c1cc(S(=O)(=O)NCCCc2ccco2)c[nH]1, Cc1ccc2nc(N(Cc3cccnc3)C(=O)C3CCCCC3)sc2c1, CN(C)CCCO[C@H]1C([C@H](O)CO)O[C@@H]2OC(C)(C)O[C@@H]21 (some centres undefined), Cc1ccc(/C=C2/C(=N)N3N=C(CC(=O)N4CCCC4)SC3=NC2=O)cc1, CC1NC(=O)NC1CCCCCC(=O)NCCc1ccccc1 (centres undefined), Cc1onc(-c2c(F)cccc2Cl)c1C(=O)NCc1ccco1, CN(c1ccccc1)c1ncnc2c1cnn2C, COc1ccc(CNC(=O)CCCc2nnc3n(CCC(C)C)c(=O)c4sccc4n23)cc1, COc1ccc2nc(N=NC3=C(O)CC(C)(C)CC3=O)sc2c1, CN(C(=O)c1ccccn1)c1nnc(-c2cccnc2)s1, Cc1ccc(S(=O)(=O)n2nc(-c3ccccc3)nc2NCc2ccccc2Cl)cc1, CCN1CCN(C(=O)c2ccc3c(c2)N(Cc2c(F)cccc2Cl)C(=O)c2ccccc2S3)CC1

Activity change, negative = inhibition, inconclusive:
CCN(CC)S(=O)(=O)c1ccc(C(=O)/C=C/c2ccc(-c3ccc([N+](=O)[O-])cc3)o2)cc1 -35.2% [inhibitor], COc1cc(/C=C/c2nc3ccccc3c(=O)[nH]2)cc(Cl)c1O -80% [inhibitor], O=C(CSc1nc(O)cc(=O)n1-c1ccccc1)Nc1nc2ccccc2s1 -57.8% [inhibitor], CCOc1ccc(CN(C(=O)/C=C/c2ccco2)C2CCS(=O)(=O)C2)cc1 (centres undefined) -59.8% [inhibitor], O=C(O)c1ccc(-c2ccc(/C=N/Nc3ccc([N+](=O)[O-])cc3)o2)cc1 -74.9% [inhibitor], CN(C(=O)COC(=O)c1cc(-c2ccco2)nc2ccccc12)C1CCS(=O)(=O)C1 (centres undefined) -105% [inhibitor], CCc1cccc(CC)c1NC(=O)c1cccc(S(=O)(=O)N2CCN(C)CC2)c1 -44.6% [inhibitor]

— PubChem BioAssay AID485314 (National Center for Advancing Translational Sciences (NCATS), 2010)
